Primary screen of a compound library

Measurements from “University of Dundee, Small-Polar-MMV Screening Library” (2021), ChEMBL document CHEMBL3988442.

The filed quantity is “Percent Effect” (%).
The controls that fix the scale are not given in the record; negative values are as filed.
Compounds were drawn at random from those tested, without regard to their results.
Two or more numbers in one place are separate tests of the same structure; such repeats can differ widely.

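Growth of Mycobacterium tuberculosis over 3 days (7H9 medium with glucose and tyloxapol); the read-out is not stated. Tested at 50 µM. Higher reads as more growth inhibition (inferred: compounds with an IC50 in retests scored well above the rest). Size under these conditions: about 69,000 compounds, about 760 of them at 50% or above in at least one test.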

Compound | Percent Effect
O=C(CN1CCS(=O)(=O)CC1)NC1CCCOc2ccccc21 (stereo not drawn) | 0.4685%
CC(C)N1CCC(CC(=O)N2CCCCC2CCn2cccn2)CC1 (stereo not drawn) | -40.62%
CCN1Cc2cc(F)ccc2N(C(C)=O)CCC1=O | 10.08%
CCC(CO)N(Cc1cccnc1)C(=O)c1ccc(C(F)(F)F)nc1O (stereo not drawn) | -32.02%
N#Cc1cccc(CN2CCN(Cc3cscn3)CC2)c1 | 3.958%
O=C1OCCN1C1CCN(Cc2cc3n(n2)CCCNC3)CC1 | -20.82%
COCCCN1CCCC12CCN(Cc1cccnc1OC)CC2.O=C(O)C(F)(F)F.O=C(O)C(F)(F)F | -7.928% & -27.42%
CCSc1cc(C(=O)NCCC(=O)N(C)C)ccn1 | 16.89%
CN1CCN(Cc2cn3c(n2)CN(Cc2ccncc2)CC3)CC1 | -8.304%
c1cnnc(N2CCCC(NCc3cccc4c3OCCO4)C2)c1 (stereo not drawn) | -23.33%
CC(C)(N)C(=O)N1CCC(c2nccnc2Oc2cccc(F)c2)CC1 | 38.35%
Cc1cc(C2CCCN2Cc2nnc(-c3ccco3)o2)on1 (stereo not drawn) | 5.714% & 15.62%
O=C(CC1CCCC1)NCCS(=O)(=O)N1CCN(c2ncccn2)CC1 | 4.325%
CC(C)(C)c1nc(CN2CCCC(c3noc(C4CC4)n3)C2)no1 (stereo not drawn) | -10.72%
Cc1cccc(N2CC3(CCN(Cc4nccn4C)C3)CC2=O)c1.O=C(O)C(F)(F)F (stereo not drawn) | -19.93%
COc1ccccc1CC1CCCN(CCC(N)=O)C1 (stereo not drawn) | 29.13%
O=C(O)C(F)(F)F.[H][C@]12CCC[C@@]1(COCc1ccncc1)CN(C(=O)CS(C)(=O)=O)C2 | 13.15%
CCC(C)c1noc(C2CCN(C(=O)c3cccnc3)CC2)n1 (stereo not drawn) | -11.32%
CCCn1nc(C)c2c(C(F)F)cc(=O)n(CC(=O)O)c21 | 8.351%
Cc1ccc(-n2nnc(C(=O)NC(C)C)c2C2CC2)cc1 | -60.8%
COCC(=O)NC1CC2(CCN(CCF)CC2)Oc2ccccc21.O=C(O)C(F)(F)F (stereo not drawn) | 18.08%
Cc1ccccc1N1CCCN(C(=O)CCCS(N)(=O)=O)CC1 | 1.32% & -45.7%
CN(C)c1ccc(C(=O)N2CCCN(C3CCCCC3)CC2)cn1 | 2.802% & 3.981%
CN1CCC(N(C)C[C@H]2CC[C@@H](Cc3cccc(O)c3)O2)CC1 | -43.82%
Cc1ccc(S(=O)(=O)NC(=O)CCOCc2ccccc2)s1 | -13.49%
O=C(c1cccnc1)N1CCCC(c2ccnc3nccn23)C1 (stereo not drawn) | 8.46%
Cc1nnc2n1CCN(CCC(=O)Nc1sccc1C#N)C2 | 14.55%
Cc1cn(Cc2nc(CC(C)C)nn2-c2ccccn2)c(=O)[nH]c1=O | -14.89%
Cc1ccc(-c2ccnc(N(C)CC3CCCN3C)n2)c(C)n1 (stereo not drawn) | 9.828%
O=C(O)C(F)(F)F.O=S(=O)(C1CC1)N1Cc2[nH]nc(COCC3CC3)c2C1 | 0.09199% & -14.69%
CCOCCN1CCN(C(C)C(=O)Nc2ccnn2C(C)C)CC1 (stereo not drawn) | 7.599%
Cc1ncc(C(=O)N2CCCC2c2c(C)nn(C)c2C)s1 (stereo not drawn) | -11.63%
CSCCN(C)Cc1ccc(F)cc1C#N | -19.64%
CCCc1cc(=O)n(CC(=O)NCCOC)c(-n2nc(C)cc2C)n1 | 38.88%
CN1CCOC(CNC(=O)CCCc2ccccc2)C1 (stereo not drawn) | -6.512%
COc1ccccc1N1CCC(NCc2c(C)noc2C)C1 (stereo not drawn) | 8.219%
Cc1nc(CN2CCCC(NCc3ccc4ccccc4c3)C2)no1 (stereo not drawn) | -16.35%
CC(C)OC(=O)N1CCC(Nc2ncc(Br)cn2)CC1 | 23.68%
CC(NC(=O)NCCCO)c1ccc2c(c1)OCCO2 (stereo not drawn) | 4.556%
Cl.O=C(CCn1c(C(F)(F)F)cc2cccnc21)N1CCCC1 | -1.097%
CCN(Cc1ccc(OC)c(F)c1)Cc1nc2c(cnn2C)c(=O)[nH]1 | 9.944%
O=C(O)c1cccc(CN2CCC(c3ccnc4ccnn34)CC2)c1 | 18.8%
N#Cc1ccc(CN2CCCC2Cn2cccn2)cc1 (stereo not drawn) | -12.7% & 2.256%
O=S(=O)(NC(CO)Cc1c[nH]c2ccccc12)c1cncc(F)c1 (stereo not drawn) | -11.15%
COc1ccc(CNC(=O)NCc2ccc(C)cc2)cn1 | -9.486%
COc1ccc(CN(C)C(=O)CN2CC(n3cccn3)C2)cc1F | -19.49%